These are yes or no findings as the source states them, for the method shown. In cells and extracts the contact can be indirect. Some binding calls cover weakened binding; strength is not graded here.
Biological target: YY1 (human (in lysate of human PCa cell lines)) (UniProt P25490)
Test: co-IP; cell lysates in IP lysis buffer, incubated with indicated antibodies and control IgG overnight at 4 °C, beads, western blot

Amino acid sequences for entries named in this document (tags omitted).
UniProt P25490: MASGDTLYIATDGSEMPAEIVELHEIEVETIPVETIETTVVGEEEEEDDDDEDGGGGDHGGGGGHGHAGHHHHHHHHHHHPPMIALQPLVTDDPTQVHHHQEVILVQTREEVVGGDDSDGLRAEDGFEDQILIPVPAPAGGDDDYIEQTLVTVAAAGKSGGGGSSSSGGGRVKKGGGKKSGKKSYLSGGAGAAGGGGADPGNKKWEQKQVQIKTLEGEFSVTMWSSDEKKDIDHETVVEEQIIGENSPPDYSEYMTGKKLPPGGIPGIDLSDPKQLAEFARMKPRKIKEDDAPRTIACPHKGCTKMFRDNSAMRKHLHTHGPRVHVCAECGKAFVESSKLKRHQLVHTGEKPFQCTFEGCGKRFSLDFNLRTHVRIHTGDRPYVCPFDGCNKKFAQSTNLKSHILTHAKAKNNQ

- binding: binds
B1: NAP1L2 (protein, UniProt Q9ULW6 1-460)
chain: MAESENRKELSESSQEEAGNQIMVEGLGEHLERGEDAAAGLGDDGKCGEEAAAGLGEEGENGEDTAAGSGEDGKKGGDTDEDSEADRPKGLIGYVLDTDFVESLPVKVKYRVLALKKLQTRAANLESKFLREFHDIERKFAEMYQPLLEKRRQIINAIYEPTEEECEYKSDSEDCDDEEMCHEEMYGNEEGMVHEYVDEDDGYEDYYYDYAVEEEEEEEEEDDIEATGEENKEEEDPKGIPDFWLTVLKNVDTLTPLIKKYDEPILKLLTDIKVKLSDPGEPLSFTLEFHFKPNEYFKNELLTKTYVLKSKLAYYDPHPYRGTAIEYSTGCEIDWNEGKNVTLKTIKKKQKHRIWGTIRTVTEDFPKDSFFNFFSPHGITSNGRDGNDDFLLGHNLRTYIIPRSVLFFSGDALESQQEGVVREVNDAIYDKIIYDNWMAAIEEVKACCKNLEALVEDIDR

Reference: paper PMC9842505
